Experimental data as given in the supplement of paper PMC6418307.
Single values of this set are uncertain.

System: primary mouse cortical neurons
Assay: cell health score (luciferase spike-in reads / total reads per well) (fraction); higher = fewer cellular reads, worse cell health / toxicity
Settings: treatment time 24 h
[1] = 0.01 µM, sex of neuron culture: Female
[2] = 0.01 µM, sex of neuron culture: Male
[3] = 0.1 µM, sex of neuron culture: Female
[4] = 0.1 µM, sex of neuron culture: Male
[5] = 1 µM, sex of neuron culture: Female
[6] = 1 µM, sex of neuron culture: Male
[7] = 10 µM, sex of neuron culture: Female
[8] = 10 µM, sex of neuron culture: Male

## CC[C@H](C)[C@H]1O[C@]2(C=C[C@@H]1C)C[C@@H]1C[C@@H](C/C=C(\C)[C@@H](O[C@H]3C[C@H](OC)[C@@H](O[C@H]4C[C@H](OC)[C@@H](O)[C@H](C)O4)[C@H](C)O3)[C@@H](C)/C=C/C=C3\CO[C@@H]4[C@H](O)C(C)=C[C@@H](C(=O)O1)[C@]34O)O2.CO[C@H]1C[C@H](O[C@H]2[C@H](C)O[C@@H](O[C@@H]3/C(C)=C/C[C@@H]4C[C@@H](C[C@]5(C=C[C@H](C)[C@@H](C(C)C)O5)O4)OC(=O)[C@@H]4C=C(C)[C@@H](O)[C@H]5OC/C(=C\C=C\[C@@H]3C)[C@]54O)C[C@@H]2OC)O[C@@H](C)[C@@H]1O [Abamectin]
[1]
  cell health score: 0.000875
[2]
  cell health score: 0.000722
[3]
  cell health score: 0.000724
[4]
  cell health score: 0.000884
[5]
  cell health score: 0.000702
[6]
  cell health score: 0.000858
[7]
  cell health score: 0.00712
[8]
  cell health score: 0.024

## COP(=O)(NC(C)=O)SC (configuration not stated) [Acephate]
[1]
  cell health score: 0.000898
[2]
  cell health score: 0.000587
[3]
  cell health score: 0.000676
[4]
  cell health score: 0.000796
[5]
  cell health score: 0.000781
[6]
  cell health score: 0.000657
[7]
  cell health score: 0.00118
[8]
  cell health score: 0.000503

## C/C(=N\C#N)N(C)Cc1ccc(Cl)nc1 [Acetamiprid]
[1]
  cell health score: 0.000661
[2]
  cell health score: 0.000669
[3]
  cell health score: 0.000736
[4]
  cell health score: 0.000736
[5]
  cell health score: 0.00121
[6]
  cell health score: 0.000725
[7]
  cell health score: 0.00208
[8]
  cell health score: 0.000391

## CCOCN(C(=O)CCl)c1c(C)cccc1CC [Acetochlor]
[1]
  cell health score: 0.000615
[2]
  cell health score: 0.000906
[3]
  cell health score: 0.00132
[4]
  cell health score: 0.000922
[5]
  cell health score: 0.00101
[6]
  cell health score: 0.000518
[7]
  cell health score: 0.00127
[8]
  cell health score: 0.000394

## CSC(=O)c1cccc2nnsc12 [Acibenzolar-S-methyl]
[1]
  cell health score: 0.000583
[2]
  cell health score: 0.000857
[3]
  cell health score: 0.000634
[4]
  cell health score: 0.000858
[5]
  cell health score: 0.000693
[6]
  cell health score: 0.001
[7]
  cell health score: 0.00107
[8]
  cell health score: 0.000666

## O=C(O)c1cc(Oc2ccc(C(F)(F)F)cc2Cl)ccc1[N+](=O)[O-] [Acifluorfen]
[1]
  cell health score: 0.000594
[2]
  cell health score: 0.00133
[3]
  cell health score: 0.00098
[4]
  cell health score: 0.00084
[5]
  cell health score: 0.000877
[6]
  cell health score: 0.000963
[7]
  cell health score: 0.0011
[8]
  cell health score: 0.000654

## CCc1cccc(CC)c1N(COC)C(=O)CCl [Alachlor]
[1]
  cell health score: 0.000518
[2]
  cell health score: 0.00107
[3]
  cell health score: 0.000487
[4]
  cell health score: 0.00063
[5]
  cell health score: 0.000828
[6]
  cell health score: 0.000815
[7]
  cell health score: 0.00116
[8]
  cell health score: 0.00179

## CNC(=O)O/N=C/C(C)(C)SC [Aldicarb]
[1]
  cell health score: 0.000611
[2]
  cell health score: 0.000685
[3]
  cell health score: 0.000832
[4]
  cell health score: 0.00146
[5]
  cell health score: 0.000803
[6]
  cell health score: 0.000495
[7]
  cell health score: 0.00104
[8]
  cell health score: 0.00125

## C=CCC1=C(C)C(OC(=O)C2C(C=C(C)C)C2(C)C)CC1=O (configuration not stated) [Allethrin]
[1]
  cell health score: 0.000738
[2]
  cell health score: 0.000983
[3]
  cell health score: 0.000782
[4]
  cell health score: 0.00076
[5]
  cell health score: 0.000803
[6]
  cell health score: 0.000487
[7]
  cell health score: 0.00118
[8]
  cell health score: 0.000478

## CCNc1nc(NC(C)C)nc(SC)n1 [Ametryn]
[1]
  cell health score: 0.000631
[2]
  cell health score: 0.000904
[3]
  cell health score: 0.000923
[4]
  cell health score: 0.000527
[5]
  cell health score: 0.000905
[6]
  cell health score: 0.000564
[7]
  cell health score: 0.00104
[8]
  cell health score: 0.000653

## Cc1ccc(/N=C/N(C)/C=N/c2ccc(C)cc2C)c(C)c1 [Amitraz]
[1]
  cell health score: 0.000662
[2]
  cell health score: 0.000569
[3]
  cell health score: 0.000612
[4]
  cell health score: 0.00142
[5]
  cell health score: 0.000763
[6]
  cell health score: 0.000729
[7]
  cell health score: 0.00127
[8]
  cell health score: 0.000675

## Clc1nc(Cl)nc(Nc2ccccc2Cl)n1 [Anilazine]
[1]
  cell health score: 0.000487
[2]
  cell health score: 0.000676
[3]
  cell health score: 0.000946
[4]
  cell health score: 0.000982
[5]
  cell health score: 0.000592
[6]
  cell health score: 0.000804
[7]
  cell health score: 0.000683
[8]
  cell health score: 0.000786

## COC(=O)NS(=O)(=O)c1ccc(N)cc1 [Asulam]
[1]
  cell health score: 0.00071
[2]
  cell health score: 0.000739
[3]
  cell health score: 0.000771
[4]
  cell health score: 0.00109
[5]
  cell health score: 0.00158
[6]
  cell health score: 0.000811
[7]
  cell health score: 0.00153
[8]
  cell health score: 0.000464

## CCNc1nc(Cl)nc(NC(C)C)n1 [Atrazine]
[1]
  cell health score: 0.000748
[2]
  cell health score: 0.000951
[3]
  cell health score: 0.000951
[4]
  cell health score: 0.000928
[5]
  cell health score: 0.000972
[6]
  cell health score: 0.000597
[7]
  cell health score: 0.000991
[8]
  cell health score: 0.000666

## COP(=O)(OC)SCn1c(=O)oc2cc(Cl)cnc21 [Azamethiphos]
[1]
  cell health score: 0.000444
[2]
  cell health score: 0.0009
[3]
  cell health score: 0.000794
[4]
  cell health score: 0.000845
[5]
  cell health score: 0.000778
[6]
  cell health score: 0.000628
[7]
  cell health score: 0.00123
[8]
  cell health score: 0.000556

## COP(=S)(OC)SCn1nnc2ccccc2c1=O [Azinphos-methyl]
[1]
  cell health score: 0.000565
[2]
  cell health score: 0.000813
[3]
  cell health score: 0.00139
[4]
  cell health score: 0.000843
[5]
  cell health score: 0.000933
[6]
  cell health score: 0.00056
[7]
  cell health score: 0.000951
[8]
  cell health score: 0.000522

## CO/C=C(/C(=O)OC)c1ccccc1Oc1cc(Oc2ccccc2C#N)ncn1 [Azoxystrobin]
[1]
  cell health score: 0.000479
[2]
  cell health score: 0.000736
[3]
  cell health score: 0.000916
[4]
  cell health score: 0.000866
[5]
  cell health score: 0.00114
[6]
  cell health score: 0.000748
[7]
  cell health score: 0.00807
[8]
  cell health score: 0.004

## CNC(=O)Oc1cccc2c1OC(C)(C)O2 [Bendiocarb]
[1]
  cell health score: 0.00051
[2]
  cell health score: 0.000724
[3]
  cell health score: 0.000747
[4]
  cell health score: 0.000851
[5]
  cell health score: 0.000868
[6]
  cell health score: 0.00055
[7]
  cell health score: 0.000809
[8]
  cell health score: 0.000624

## CCCCN(CC)c1c([N+](=O)[O-])cc(C(F)(F)F)cc1[N+](=O)[O-] [Benfluralin]
[1]
  cell health score: 0.000492
[2]
  cell health score: 0.000785
[3]
  cell health score: 0.00134
[4]
  cell health score: 0.00106
[5]
  cell health score: 0.000731
[6]
  cell health score: 0.000774
[7]
  cell health score: 0.00129
[8]
  cell health score: 0.000441
